Source: the supplement of paper PMC12819154, “High-throughput peptide-centric local stability assay extends protein–ligand identification to membrane proteins, tissues and bacteria” (Nature Structural & Molecular Biology, 2025)
Some of the results follow. Most values lie at the level of the controls, where differences are scatter.

Sequences of proteins named here, by UniProt entry; tags and fusion partners are left off. A change or cut given only in a name is not applied to a line headed by its entry.
UniProt Q9JKL4: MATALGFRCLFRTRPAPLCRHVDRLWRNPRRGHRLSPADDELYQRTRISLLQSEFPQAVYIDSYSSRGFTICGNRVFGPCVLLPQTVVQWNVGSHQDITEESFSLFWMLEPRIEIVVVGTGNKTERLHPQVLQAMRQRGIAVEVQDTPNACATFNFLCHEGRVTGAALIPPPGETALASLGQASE
UniProt Q9EQN3: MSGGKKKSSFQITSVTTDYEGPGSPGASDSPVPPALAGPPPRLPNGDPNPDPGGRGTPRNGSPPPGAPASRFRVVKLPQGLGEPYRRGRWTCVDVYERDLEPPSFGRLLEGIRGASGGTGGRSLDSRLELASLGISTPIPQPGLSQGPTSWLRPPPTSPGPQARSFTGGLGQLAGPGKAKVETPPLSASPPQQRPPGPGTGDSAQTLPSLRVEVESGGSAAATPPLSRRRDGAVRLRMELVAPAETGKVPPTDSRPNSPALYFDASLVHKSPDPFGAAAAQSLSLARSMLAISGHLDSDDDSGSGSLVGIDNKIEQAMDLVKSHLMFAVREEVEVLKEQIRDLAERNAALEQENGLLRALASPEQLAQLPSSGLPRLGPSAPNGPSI
UniProt Q9JJT9, whole entry: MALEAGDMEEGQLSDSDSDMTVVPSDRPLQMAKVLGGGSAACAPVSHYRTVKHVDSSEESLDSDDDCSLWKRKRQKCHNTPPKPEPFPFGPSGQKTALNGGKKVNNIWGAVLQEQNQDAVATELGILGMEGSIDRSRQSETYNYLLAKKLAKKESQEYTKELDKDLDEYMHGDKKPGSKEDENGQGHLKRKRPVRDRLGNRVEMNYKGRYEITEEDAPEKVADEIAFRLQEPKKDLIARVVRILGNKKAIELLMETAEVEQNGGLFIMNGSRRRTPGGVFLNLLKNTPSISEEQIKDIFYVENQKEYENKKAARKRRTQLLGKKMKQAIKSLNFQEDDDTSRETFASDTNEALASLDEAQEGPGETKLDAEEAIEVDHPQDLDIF
UniProt Q9JHS4, whole entry: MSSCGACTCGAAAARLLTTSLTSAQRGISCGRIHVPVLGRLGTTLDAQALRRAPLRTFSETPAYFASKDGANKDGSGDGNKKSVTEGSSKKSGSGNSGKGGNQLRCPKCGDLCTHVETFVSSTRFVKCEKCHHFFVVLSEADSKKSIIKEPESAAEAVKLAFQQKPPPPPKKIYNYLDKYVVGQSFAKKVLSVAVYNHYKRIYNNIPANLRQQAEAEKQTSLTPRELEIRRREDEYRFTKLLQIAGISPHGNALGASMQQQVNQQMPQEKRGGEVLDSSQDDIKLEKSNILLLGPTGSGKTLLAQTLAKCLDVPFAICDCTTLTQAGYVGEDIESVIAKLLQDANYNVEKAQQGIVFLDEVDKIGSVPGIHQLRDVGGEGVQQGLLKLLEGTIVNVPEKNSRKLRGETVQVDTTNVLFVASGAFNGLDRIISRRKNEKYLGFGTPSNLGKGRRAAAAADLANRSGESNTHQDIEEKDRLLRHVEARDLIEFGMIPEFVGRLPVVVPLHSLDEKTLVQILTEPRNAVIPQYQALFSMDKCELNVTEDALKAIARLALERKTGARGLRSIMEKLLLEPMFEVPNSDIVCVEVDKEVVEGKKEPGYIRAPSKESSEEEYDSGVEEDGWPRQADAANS
UniProt Q9ERE7: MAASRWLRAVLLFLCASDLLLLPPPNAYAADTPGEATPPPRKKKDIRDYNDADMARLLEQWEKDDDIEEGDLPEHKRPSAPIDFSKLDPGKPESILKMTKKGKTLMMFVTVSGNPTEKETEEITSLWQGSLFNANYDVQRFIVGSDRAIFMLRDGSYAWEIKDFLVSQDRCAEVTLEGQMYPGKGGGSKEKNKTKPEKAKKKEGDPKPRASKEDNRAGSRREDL
UniProt Q9EQ80: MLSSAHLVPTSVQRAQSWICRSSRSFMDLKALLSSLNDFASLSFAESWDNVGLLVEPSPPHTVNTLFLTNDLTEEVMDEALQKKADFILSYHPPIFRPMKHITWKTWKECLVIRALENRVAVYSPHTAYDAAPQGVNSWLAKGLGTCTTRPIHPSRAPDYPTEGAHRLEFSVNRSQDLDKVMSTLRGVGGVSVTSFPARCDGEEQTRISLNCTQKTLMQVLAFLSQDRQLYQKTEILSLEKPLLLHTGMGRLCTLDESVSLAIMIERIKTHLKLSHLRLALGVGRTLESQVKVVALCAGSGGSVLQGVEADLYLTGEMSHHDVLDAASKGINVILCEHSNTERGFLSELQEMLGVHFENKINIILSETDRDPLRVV
UniProt Q9JHI9: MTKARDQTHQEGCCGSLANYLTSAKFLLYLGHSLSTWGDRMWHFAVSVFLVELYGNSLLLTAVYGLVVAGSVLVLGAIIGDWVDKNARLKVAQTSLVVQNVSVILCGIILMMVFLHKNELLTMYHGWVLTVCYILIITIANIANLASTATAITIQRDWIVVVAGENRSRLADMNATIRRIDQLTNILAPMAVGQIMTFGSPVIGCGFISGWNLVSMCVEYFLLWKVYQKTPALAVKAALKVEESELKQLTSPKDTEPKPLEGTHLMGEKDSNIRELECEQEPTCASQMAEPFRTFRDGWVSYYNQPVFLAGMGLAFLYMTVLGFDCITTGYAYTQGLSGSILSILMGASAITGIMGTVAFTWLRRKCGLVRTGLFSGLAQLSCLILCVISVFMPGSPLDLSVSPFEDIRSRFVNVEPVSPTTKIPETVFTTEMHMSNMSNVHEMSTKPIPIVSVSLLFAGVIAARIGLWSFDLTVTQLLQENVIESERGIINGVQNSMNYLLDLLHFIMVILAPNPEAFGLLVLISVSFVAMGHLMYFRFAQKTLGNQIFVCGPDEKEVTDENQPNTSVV
UniProt Q9DD18: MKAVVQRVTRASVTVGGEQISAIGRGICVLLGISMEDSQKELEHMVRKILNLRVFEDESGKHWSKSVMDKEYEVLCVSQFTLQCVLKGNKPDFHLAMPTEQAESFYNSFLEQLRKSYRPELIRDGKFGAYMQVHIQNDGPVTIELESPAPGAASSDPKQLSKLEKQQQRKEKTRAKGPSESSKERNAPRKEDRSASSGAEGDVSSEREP
UniProt Q9EPC1: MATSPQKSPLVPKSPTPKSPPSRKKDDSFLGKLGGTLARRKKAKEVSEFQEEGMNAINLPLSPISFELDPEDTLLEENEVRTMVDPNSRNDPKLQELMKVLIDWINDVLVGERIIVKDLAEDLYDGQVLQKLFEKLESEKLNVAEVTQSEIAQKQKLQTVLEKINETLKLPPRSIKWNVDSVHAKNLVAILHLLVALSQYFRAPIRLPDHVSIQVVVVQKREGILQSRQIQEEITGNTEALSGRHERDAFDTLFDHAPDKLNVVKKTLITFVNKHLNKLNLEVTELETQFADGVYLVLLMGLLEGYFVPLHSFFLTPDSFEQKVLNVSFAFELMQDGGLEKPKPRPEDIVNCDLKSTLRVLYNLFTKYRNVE
UniProt Q9ERR7, whole entry: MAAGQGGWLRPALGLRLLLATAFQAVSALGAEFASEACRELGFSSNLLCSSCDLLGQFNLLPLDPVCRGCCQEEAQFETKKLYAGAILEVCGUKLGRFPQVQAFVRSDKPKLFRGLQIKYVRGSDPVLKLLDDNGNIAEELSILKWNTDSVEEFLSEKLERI
UniProt Q9EQU5, whole entry: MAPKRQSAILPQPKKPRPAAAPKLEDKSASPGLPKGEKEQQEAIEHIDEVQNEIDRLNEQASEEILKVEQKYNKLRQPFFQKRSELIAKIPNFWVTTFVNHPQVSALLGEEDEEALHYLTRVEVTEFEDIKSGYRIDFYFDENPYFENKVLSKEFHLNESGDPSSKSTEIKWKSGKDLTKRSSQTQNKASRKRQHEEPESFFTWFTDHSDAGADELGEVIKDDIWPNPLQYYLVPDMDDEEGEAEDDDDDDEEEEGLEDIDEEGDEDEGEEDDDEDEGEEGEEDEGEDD
UniProt Q9DCT1: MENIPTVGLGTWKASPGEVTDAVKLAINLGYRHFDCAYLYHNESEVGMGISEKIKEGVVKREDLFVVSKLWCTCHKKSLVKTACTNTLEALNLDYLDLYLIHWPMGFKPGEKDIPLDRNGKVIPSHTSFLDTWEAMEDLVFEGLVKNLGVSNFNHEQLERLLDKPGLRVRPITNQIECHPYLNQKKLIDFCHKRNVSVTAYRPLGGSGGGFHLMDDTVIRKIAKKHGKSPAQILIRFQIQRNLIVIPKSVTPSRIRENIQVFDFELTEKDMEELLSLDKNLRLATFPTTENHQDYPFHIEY
UniProt Q9JKV1: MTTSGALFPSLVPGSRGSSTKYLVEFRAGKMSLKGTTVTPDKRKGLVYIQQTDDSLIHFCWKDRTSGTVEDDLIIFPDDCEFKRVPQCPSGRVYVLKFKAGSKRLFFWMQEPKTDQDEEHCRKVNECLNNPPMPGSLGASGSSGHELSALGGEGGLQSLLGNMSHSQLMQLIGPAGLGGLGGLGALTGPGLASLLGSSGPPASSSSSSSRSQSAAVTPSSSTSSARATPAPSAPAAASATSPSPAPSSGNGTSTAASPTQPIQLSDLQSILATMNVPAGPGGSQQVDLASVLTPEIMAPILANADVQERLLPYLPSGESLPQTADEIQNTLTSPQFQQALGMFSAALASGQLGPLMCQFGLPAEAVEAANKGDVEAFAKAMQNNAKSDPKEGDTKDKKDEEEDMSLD
UniProt Q9JK23: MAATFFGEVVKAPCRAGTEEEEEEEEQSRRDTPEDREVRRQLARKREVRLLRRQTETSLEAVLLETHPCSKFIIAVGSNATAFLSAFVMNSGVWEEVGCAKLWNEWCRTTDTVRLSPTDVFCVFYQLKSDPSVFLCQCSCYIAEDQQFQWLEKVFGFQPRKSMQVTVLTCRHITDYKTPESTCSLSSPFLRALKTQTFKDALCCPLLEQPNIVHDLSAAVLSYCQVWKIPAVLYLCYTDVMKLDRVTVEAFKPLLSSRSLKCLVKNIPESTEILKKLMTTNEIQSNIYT
UniProt Q9QYH6: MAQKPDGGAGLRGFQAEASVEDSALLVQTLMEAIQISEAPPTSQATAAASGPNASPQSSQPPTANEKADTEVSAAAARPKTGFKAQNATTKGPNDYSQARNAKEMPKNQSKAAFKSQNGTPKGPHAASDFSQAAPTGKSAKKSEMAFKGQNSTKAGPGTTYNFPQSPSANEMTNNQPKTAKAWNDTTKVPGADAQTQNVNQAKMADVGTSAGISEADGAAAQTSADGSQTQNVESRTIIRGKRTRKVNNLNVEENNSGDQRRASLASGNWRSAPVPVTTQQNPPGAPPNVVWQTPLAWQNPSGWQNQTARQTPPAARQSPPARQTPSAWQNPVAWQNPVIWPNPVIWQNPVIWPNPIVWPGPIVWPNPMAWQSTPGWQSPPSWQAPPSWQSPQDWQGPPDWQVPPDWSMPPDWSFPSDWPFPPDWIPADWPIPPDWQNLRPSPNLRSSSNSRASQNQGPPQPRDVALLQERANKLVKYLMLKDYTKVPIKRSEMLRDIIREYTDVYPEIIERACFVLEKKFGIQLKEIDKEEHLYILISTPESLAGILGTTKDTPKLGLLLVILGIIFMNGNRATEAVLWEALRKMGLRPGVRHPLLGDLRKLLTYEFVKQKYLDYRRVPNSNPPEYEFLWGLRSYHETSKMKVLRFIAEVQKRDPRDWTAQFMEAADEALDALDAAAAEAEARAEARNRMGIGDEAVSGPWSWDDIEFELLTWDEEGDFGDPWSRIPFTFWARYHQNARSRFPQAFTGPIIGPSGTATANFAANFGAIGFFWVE
UniProt Q9DCT8: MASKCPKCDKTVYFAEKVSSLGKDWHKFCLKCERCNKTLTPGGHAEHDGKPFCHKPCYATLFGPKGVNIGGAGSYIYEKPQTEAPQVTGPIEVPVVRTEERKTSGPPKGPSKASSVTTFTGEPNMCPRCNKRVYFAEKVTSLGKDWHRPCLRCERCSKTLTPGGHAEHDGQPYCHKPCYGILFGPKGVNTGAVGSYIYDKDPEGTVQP
UniProt Q9EQ06: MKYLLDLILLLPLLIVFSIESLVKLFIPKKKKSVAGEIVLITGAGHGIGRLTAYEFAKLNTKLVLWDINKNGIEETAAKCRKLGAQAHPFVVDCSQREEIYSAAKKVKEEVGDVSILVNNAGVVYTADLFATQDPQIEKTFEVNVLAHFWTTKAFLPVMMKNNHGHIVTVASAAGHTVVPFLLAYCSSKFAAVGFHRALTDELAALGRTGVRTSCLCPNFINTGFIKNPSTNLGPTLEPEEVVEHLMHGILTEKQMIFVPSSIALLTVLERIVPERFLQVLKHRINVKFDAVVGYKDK
UniProt Q9DCN1: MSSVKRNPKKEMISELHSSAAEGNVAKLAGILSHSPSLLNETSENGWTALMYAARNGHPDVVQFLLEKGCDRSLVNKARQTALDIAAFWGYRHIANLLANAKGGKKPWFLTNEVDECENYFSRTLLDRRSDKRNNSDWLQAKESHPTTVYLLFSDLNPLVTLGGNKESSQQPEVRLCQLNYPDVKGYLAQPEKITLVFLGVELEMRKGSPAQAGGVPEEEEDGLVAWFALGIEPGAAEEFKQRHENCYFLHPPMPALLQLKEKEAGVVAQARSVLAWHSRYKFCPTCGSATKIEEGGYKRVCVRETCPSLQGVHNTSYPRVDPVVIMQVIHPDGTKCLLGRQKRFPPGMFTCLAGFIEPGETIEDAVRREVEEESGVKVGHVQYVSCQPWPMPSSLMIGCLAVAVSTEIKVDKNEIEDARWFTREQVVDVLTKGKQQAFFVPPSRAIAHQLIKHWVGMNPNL

The targets below were run with CN[C@@H]1C[C@H]2O[C@@](C)([C@@H]1OC)n1c3ccccc3c3c4c(c5c6ccccc6n2c5c31)C(=O)NC4 [staurosporine] (assay: log2 fold change of pooled soluble protein (PISA), ligand vs vehicle (log2 ratio); higher = more thermally stabilized). Conditions: ligand concentration: 20 uM; assay format: PISA pool 52.9/55.5/58.6 C.

Target	log2 fold change of pooled soluble protein
UniProt Q9JKL4	-0.0664
UniProt Q9EQN3	0.0871
UniProt Q9JJT9	-0.0809
UniProt Q9JIG8	0.0451
UniProt Q9JHS4	-0.0428
UniProt Q9JJL3	0.137
UniProt Q9ERE7	-0.0742
UniProt Q9EQ80	0.0322
UniProt Q9JHI9	0.0368
Q9QUK9;Q9R0T7	-0.0858
UniProt Q9DD18	0.36
UniProt Q9EPC1	-0.169
UniProt Q9ESB3	-0.0371
UniProt Q9EPL8	0.179
UniProt Q9QYB8	0.135
UniProt Q9QXZ6	0.0308
UniProt Q9EPQ8	-0.236
UniProt Q9ERR7	0.0551
UniProt Q9DCF9	0.203

Target	log2 fold change of pooled soluble protein
UniProt Q9JKF1	0.0488
UniProt Q9ERY9	-0.185
UniProt Q9JJI8	0.301
UniProt Q9JMH6	-0.0882
UniProt Q9EQU5	-0.017
UniProt Q9JKP5	-0.0229
UniProt Q9DCT1	-0.0818
UniProt Q9JKV1	0.0776
UniProt Q9JK23	0.178
UniProt Q9QYH6	0.0236
UniProt Q9ERG0	0.0246
UniProt Q9JK53	-0.157
UniProt Q9DCT8	-0.326
UniProt Q9EQ06	-0.163
UniProt Q9DD06	-0.0017
UniProt Q9QVP9	-0.00464
UniProt Q9DCN1	0.48
UniProt Q9JI90	0.0268

Pulled one by one from the entries so far (3):
Target	log2 fold change of pooled soluble protein
UniProt Q9DCT8	-0.326
UniProt Q9JK23	0.178
UniProt Q9DCN1	0.48
